This passage reports binding results from paper PMC8141524.

Protein sequences, listed by entry. Tags and fused reporters are not part of them. Residues count along the entry.
UniProt Q68FF0, residues 144-261: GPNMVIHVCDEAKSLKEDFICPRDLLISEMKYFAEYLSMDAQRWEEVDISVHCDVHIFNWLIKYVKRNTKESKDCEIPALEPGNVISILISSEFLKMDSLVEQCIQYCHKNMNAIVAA

These are yes or no findings as the source states them, for the method shown. Some results given as binding are weak or reduced against the parent protein; the word gives no strength. Sequences can lack the tags named with a protein.

The test addresses T1, GST-SMRT(1383-1467), residues 1383-1467 of mouse SMRT (mouse) (UniProt Q9WU42).
T1 sequence: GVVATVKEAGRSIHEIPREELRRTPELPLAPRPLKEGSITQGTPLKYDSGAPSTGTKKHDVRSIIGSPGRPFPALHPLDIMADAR
As to the kind of experiment: pull-down; 200 nM His6-tagged BTB domain with equimolar GST-tagged protein, 50 mM HEPES pH 8.0, 150 mM NaCl, 0.1% IGEPAL-CA630, 2 mM EDTA, 4 °C; glutathione sepharose 4B; immunoblot anti-His; both purified.

Take “His6-SANBR(BTB), the predicted BTB domain of SANBR (amino acids 144-261) (from UniProt Q68FF0-1 144-261) (domain or fragment)”: the binding entry is recorded as “binds”.
